# Primary screen of a compound library

Each number is a percent effect as filed. The controls that fix the scale are not given in the record; negative values are as filed. Compounds were drawn at random from those tested, without regard to their results. Two or more numbers in one place are separate tests of the same structure; such repeats can differ widely.

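Viability assay of Plasmodium falciparum sporozoites; the read-out is not stated. The concentration is filed as 10 mM, unlikely as a test dose, so the dose is not known. Higher reads as lower viability (inferred: compounds with an IC50 in retests scored well above the rest). Strong results were mostly tested again. Size under these conditions: about 34,000 compounds, about 280 of them at 50% or above in at least one test.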

* CNC(=O)N1CCC2(CC1)c1ncc(C)n1CCN2C.O=C(O)C(F)(F)F.O=C(O)C(F)(F)F : 19.95%
* CCC(=O)N1CCN(C(=O)Cn2cccn2)CC1 : -7.06%
* Cn1nccc1C1CCN(Cc2csc(-c3ncccn3)n2)CC1 : 8.605%
* C[C@H](O)CNc1cc(-c2ccccc2)ncn1 : 1.948%
* COc1cccc(COCC(=O)N2CCCC(n3cccn3)C2)c1 (stereo unspecified) : -3.79%
* CC(=O)N1CCC(C(=O)NCCN2CCCCC2)CC1 : -7.167%
* Cc1ccc(C)c(OCC(O)Cn2ncc3cnn(C)c(=O)c32)c1 (stereo unspecified) : -9.371%
* Cc1ccc2nc(C(=O)N(C)[C@@H]3CC[C@@H](N4CCCC4)[C@@H]3O)cn2c1 : 1.101%
* [H][C@@]12CN(Cc3ccccn3)C[C@]1([H])CN(C(=O)C1CCOC1)C2 (stereo partly specified) : -2.057%
* COc1c(C)cnc(CN2CCCC2Cn2nc(C)nc2C)c1C (stereo unspecified) : 0.8873%
* CC(=O)Nc1nc(C2CCN(C(=O)C3CCC3)CC2)cs1 : 7.728%
* Cc1ccc(S(=O)(=O)N(CC(N)=O)CC(C)C)cc1C : -34.03%
* C[C@H]1CN2C[C@H](O)CC2CN1Cc1ccncc1 (stereo partly specified) : -8.44%
* Cc1cc(CC(=O)NC2CCCN(Cc3ccccc3)C2=O)n[nH]1 (stereo unspecified) : -3.581%
* O=C(c1cccnc1N1CCOCC1)N1CCCC(n2cncn2)C1 (stereo unspecified) : 5.158%
* Cc1cc(C)n(CC2CCCN2CCCS(N)(=O)=O)n1 (stereo unspecified) : 17.55%
* CC(Cn1ccnc1)NC(=O)NCCNC(=O)C(C)C (stereo unspecified) : -3.325% and -3.627% and -9.547%
* O=C(NCCc1cc2nc(-c3ccncc3)ccn2n1)C1CCOCC1 : 10.32%
* O=S1(=O)CCC(S(=O)(=O)c2cccc(S(=O)(=O)N3CCOCC3)c2)C1 (stereo unspecified) : -12%
* Cc1csc(N2CCN(C(=O)C3(C#N)CCCCC3)CC2)n1 : 3.674%
* Cc1ccc(C(=O)NCCNc2ncccc2C#N)c(=O)[nH]1 : 1.778%
* CC(NC(=O)c1cc(C(C)C)[nH]n1)C(=O)Nc1ccccc1 (stereo unspecified) : 72.25% and 63.23% and 81.29%
* CS(=O)(=O)c1cncnc1C1CCCN(C(=O)Cc2ccccc2F)C1 (stereo unspecified) : -16.54%
* [H][C@@]12CCN(Cc3cc(C)on3)C[C@@]1([H])O[C@@H](c1nc(C)cs1)C2 : 4.904%
* Cn1ccnc1C(=O)N1CCC2(CCN2Cc2ccc(F)cc2)C1.O=C(O)C(F)(F)F (stereo unspecified) : -1.35%
* CNC(=O)C1CCN(C(=O)CCn2cccn2)CC1 : -15.46%
* Cc1ccc(CC(=O)N2CCCCC2c2nc(C)cs2)cn1 (stereo unspecified) : -19.81%
* Fc1cccc(Cl)c1CN1CCC(c2n[nH]c3ncccc23)CC1 : 11.65%
* CNC(=O)NCC1CCC2(CCN(C(=O)c3ccccn3)CC2)CO1.O=C(O)C(F)(F)F (stereo unspecified) : -0.4052%

The first 4 entries again:

Compound,Percent Effect
CNC(=O)N1CCC2(CC1)c1ncc(C)n1CCN2C.O=C(O)C(F)(F)F.O=C(O)C(F)(F)F,19.95%
CCC(=O)N1CCN(C(=O)Cn2cccn2)CC1,-7.06%
Cn1nccc1C1CCN(Cc2csc(-c3ncccn3)n2)CC1,8.605%
C[C@H](O)CNc1cc(-c2ccccc2)ncn1,1.948%

Source: ChEMBL document CHEMBL3988442, “University of Dundee, Small-Polar-MMV Screening Library” (2021).